Laboratory results published in patent US5656600A, “α-ketoamide derivatives as inhibitors of thrombosis” (Corvas International, Inc., priority 1993, dated 1997).
Not every detail of the peptide structures is certain; ends, links or a residue may be inferred. Residues, ends and D or L forms follow the SMILES beside them. *: point of attachment. Pentanoyl(2-Pr) = CCCC(CCC)C(=O)*

Biological target: α-thrombin (Homo sapiens, UniProt P00734)
Experiment: Amidolytic thrombin assay (inhibition constant Ki)
Type: biochemical
Settings: for kinetics / mechanism of thrombin inhibition: in words
Procedure: The ability of the compounds of the present invention to act as inhibitors of thrombin catalytic activity in comparison to Hirulog-1 (compound 25) was assessed by determining their inhibition constant, Ki.
Enzyme activity was determined using the chromogenic substrate Pefachrome t-PA (CH3 SO2 -D-hexahydrotyrosine-glycyl-L-arginine-p-nitroaniline, obtained from Pentapharm Ltd.). The substrate was reconstituted in deionized water prior to use.
Ki values were determined for test compounds using the following methodologies:
The assay was conducted by combining in appropriate wells of a Corning microtiter plate, 50 μL of HBSA, 50 μL of the test compound at a specified concentration diluted in HBSA (or HBSA alone for Vo(uninhibited velocity) measurement), and 50 μL of the chromogenic substrate diluted in HBSA. At time zero, 50 μL of α-thrombin diluted in HBSA, was added to the wells yielding a final concentration of 0.25 nM in a total volume of 200 μL. Velocities of Pefachrome-tPA substrate hydrolysis which occurred over a 40 minute time period was measured by the change in absorbance at 405 nm using a Thermo Max® Kinetic Microplate Reader. […] The linear relationship between kobs and inhibitor concentration is indicative of a competitive, one step mechanism and was used to calculate kon and koff which yielded a value for Ki after taking into consideration the concentration and Km (38.5 μM) of the substrate in the assay.
The initial velocity of Pefachrome t-PA hydrolysis was measured by the change in absorbance at 405 nm using a Thermo Max® Kinetic Microplate Reader over a 2 minute period in which less than 5% of the added substrate was utilized. The relationship between the ratio of the inhibited steady-state velocity (Vs) and the uninhibited velocity (Vo) to the concentration of inhibitor [It ], was analyzed using Equation 1 developed by Morrison , J. F., Biochim. Biophys. Acta, 185:269 (1969) for inhibitors which deplete a significant amount of the total enzyme (Et) over the course of the assay (designated tight binding inhibitors):
Vs/Vo={([Et ]-[It ]-Ki*)+[([It ]+Ki*-[Et ])^2
Ki* was determined by fitting Vs/Vo verses [I] using Equation 1 by non-linear regression analysis.
The best fit of the data for both compounds was to the equation describing competitive inhibition.

SMILES: CCCC(CCC)C(=O)N[C@@H](CC(=O)O)C(=O)N1CCC[C@H]1C(=O)N[C@@H](CCCNC(=N)N)C(=O)N1CCC[C@H]1C(=O)NCC(=O)NCC(=O)NCC(=O)NCC(=O)N[C@@H](CC(N)=O)C(=O)NCC(=O)N[C@@H](CC(=O)O)C(=O)N[C@@H](Cc1ccccc1)C(=O)N[C@@H](CCC(=O)O)C(=O)N[C@@H](CCC(=O)O)C(=O)N[C@H](C(=O)N1CCC[C@H]1C(=O)N[C@@H](CCC(=O)O)C(=O)N[C@@H](Cc1ccc(O)cc1)C(=O)N[C@@H](CC(C)C)C(=O)O)[C@@H](C)CC [Compound 9] ({Pentanoyl(2-Pr)}-DPRPGGGGNGDFEEIPEYL-OH)
- kinetics / mechanism of thrombin inhibition: rapid, reversible kinetics of inhibition

SMILES: CCCC(CCC)C(=O)N[C@@H](CC(=O)O)C(=O)N1CCC[C@H]1C(=O)N[C@@H](CCCNC(=N)N)C(=O)C(=O)NCC(=O)NCC(=O)NCC(=O)NCC(=O)NCC(=O)N[C@@H](CC(N)=O)C(=O)NCC(=O)N[C@@H](CC(=O)O)C(=O)N[C@@H](Cc1ccccc1)C(=O)N[C@@H](CCC(=O)O)C(=O)N[C@@H](CCC(=O)O)C(=O)N[C@H](C(=O)N1CCC[C@H]1C(=O)N[C@@H](CCC(=O)O)C(=O)N[C@@H](CCC(=O)O)C(=O)N[C@@H](Cc1ccc(O)cc1)C(=O)N[C@@H](CC(C)C)C(=O)O)[C@@H](C)CC [Compound 10]
- fold decrease in inhibitory potency compared to compound 8: over 20 fold
- kinetics / mechanism of thrombin inhibition: slow binding or slow-tight binding kinetics

SMILES: CCCC(CCC)C(=O)N[C@@H](CC(=O)O)C(=O)N1CCC[C@H]1C(=O)N[C@@H](CCCNC(=N)N)C(=O)C(=O)NCC(=O)NCC(=O)NCC(=O)NCC(=O)NCC(=O)N[C@@H](CCCNC(=N)N)C(=O)NCC(=O)N[C@@H](CC(=O)O)C(=O)N[C@@H](Cc1ccccc1)C(=O)N[C@@H](CCC(=O)O)C(=O)N[C@@H](CCC(=O)O)C(=O)N[C@H](C(=O)N1CCC[C@H]1C(=O)N[C@@H](CCC(=O)O)C(=O)N[C@@H](CCC(=O)O)C(=O)N[C@@H](Cc1ccc(O)cc1)C(=O)N[C@@H](CC(C)C)C(=O)O)[C@@H](C)CC [Compound 11]
- kinetics / mechanism of thrombin inhibition: slow binding or slow-tight binding kinetics
